Taken from: PubChem BioAssay AID1259254 (NCATS, 2017)
Screen: 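Gene knock-downs that lead to re-replication, shown by excess G2 DNA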 (primary screen). System: human HCT116 colorectal cancer cells. Reagent: single siRNA against human genes. Duration: 3 days. Measured: 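Nuclei stained with Hoechst and imaged; cell-cycle phase assigned by DNA content; G2 share scaled per plate, non-targeting siRNA 0%, GMNN siRNA 100%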. Reading the numbers: G2 robust z-score: higher = more G2 cells, more excess DNA replication. Call rule: 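Active siRNAs have a G2 robust z of 5 or more median absolute deviations over the median, which in these data means about 38% or higher of GMNN control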.
This is an unselected part of about 59,000 reagents. About 1,550 of all reagents (2.6%) were called active. 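G2 share is only a proxy for re-replication; each gene was hit by three separate siRNAs, and active genes were retested.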 Reagents against one gene are numbered here. Further read-outs or replicates are left out here. The record does not give: the amount of reagent.

G2 robust z-score, by gene and reagent
BPTF: #1 6.25 active; #2 2.1 inactive; #3 1.93 inactive
POLR1H: #1 -0.517 inactive; #2 -0.435 inactive; #3 0.195 inactive
TUSC1: #1 0.669 inactive; #2 1.33 inactive; #3 -0.761 inactive
ZFR: #1 0.00525 inactive; #2 -0.183 inactive; #3 -0.722 inactive
PACSIN1: #1 -0.674 inactive; #2 -1.04 inactive; #3 4.16 inactive
GARIN1B: #1 -0.411 inactive; #2 -1.11 inactive; #3 -0.675 inactive
ELOA: #1 -0.552 inactive; #2 2.63 inactive; #3 3.06 inactive
CXCL5: #1 -0.757 inactive; #2 -1.12 inactive; #3 0.449 inactive
VRK2: #1 0.0391 inactive; #2 3.27 inactive; #3 -1.13 inactive
CDKN1C: #1 2.32 inactive; #2 0.104 inactive; #3 -0.0224 inactive
PCNX1: #1 -1.06 inactive; #2 -0.976 inactive; #3 -0.0778 inactive
TVP23B: #1 1.06 inactive; #2 -0.673 inactive; #3 0.0256 inactive
SARS2: #1 -0.138 inactive; #2 -0.0837 inactive; #3 -0.269 inactive
KIF1A: #1 -0.14 inactive; #2 0.492 inactive; #3 -0.464 inactive
DPP8: #1 0.492 inactive; #2 -0.102 inactive; #3 -1.07 inactive
ERGIC3: #1 0.857 inactive; #2 0.829 inactive; #3 -0.683 inactive
